According to patent US20080280370A1 (priority 2007, published 2008):

Columns and labels:
[1] = parameters: species or system soybean; conditions: CX samples, internal standard
[2] = Limit of quantitation and estimated limit of detection in corn and soybean matrices
[3] = grapes; for Conc. From curve: final extract; for FOUND (PPM): Set 2, individual samples
[4] = Whole Milk (RM Raw Milk), MCX
[5] = parameters: species or system cow and chicken; conditions: cow kidney (beef), fortified 0.5 mg/kg (10X LOQ)
[6] = milk, egg, and muscle matrices
[7] = soybean seed, Set 4, individual samples
[8] = Trial 1, Set 2, 4X LOQ samples (fortified 0.200 μg/g)
[9] = Trial 1, Set 2, LOQ samples (fortified about 0.050 μg/g)

SMILES | Recoveries: AMPA % Rec ([1]; soybean meal fortified at 0.05 mg/kg (LOQ)) | Recoveries: AMPA % Rec ([1]; soybean meal fortified at 0.5 mg/kg (10X)) | LOQ validated [2] | Conc. From curve [3, 8] | Conc. From curve [3, 9] | Recoveries % Rec ([4]; fortified 0.05 mg/kg) | Recoveries % Rec ([4]; fortified 0.5 mg/kg) [%] | AMPA % Rec [5] | LOQ [6] | FOUND (PPM) ([3]; fortification level 0.050 ppm) | FOUND (PPM) ([3]; fortification level 0.20 ppm) | FOUND (PPM) ([7]; fortification level 0.050 ppm) | FOUND (PPM) ([7]; fortification level 20 ppm)
NCP(=O)(O)O [AMPA, aminomethyl phosphonic acid] | 82% and 90% | 73% and 76% | 0.050 ppm (mg/kg) | 5.58 ng/mL and 5.94 ng/mL and 5.80 ng/mL and 6.20 ng/mL and 5.62 ng/mL | 1.68 ng/mL and 1.52 ng/mL and 1.60 ng/mL and 1.65 ng/mL and 1.63 ng/mL | 89% and 84% | 82 | 77% and 71% | 0.025 mg/kg (ppm) |  |  |  | 
CC(=O)NCP(=O)(O)O [N-acetyl AMPA, (Acetamidomethyl)phosphonic acid] |  |  |  |  |  |  |  |  | 0.025 mg/kg (ppm) | 0.051 PPM and 0.049 PPM and 0.044 PPM and 0.050 PPM and 0.040 PPM | 0.17 PPM and 0.18 PPM and 0.16 PPM (2×) and 0.15 PPM | 0.051 PPM and 0.049 PPM and 0.048 PPM (2×) and 0.044 PPM | 17 PPM and 24 PPM (2×) and 25 PPM and 21 PPM
CC(=O)N(CC(=O)O)CP(=O)(O)O [N-acetylglyphosate, N-Acetyl-N-(phosphonomethyl)glycine] |  |  | 0.050 ppm (mg/kg) | 3.19 ng/mL and 3.51 ng/mL and 3.43 ng/mL and 3.45 ng/mL and 3.59 ng/mL | 0.937 ng/mL and 0.989 ng/mL and 0.920 ng/mL and 0.922 ng/mL |  |  |  | 0.025 mg/kg (ppm) | 0.050 PPM and 0.046 PPM (2×) and 0.049 PPM and 0.47 PPM |  |  | 

Where “and” joins values, the source holds several entries; their conditions need not be identical. Equal values may be shown once. Read-outs that look alike come from different tables or passages of the source.
